According to article PMC6660512:
Results are given in words; binding and its absence hold for the method and conditions named. Binding seen in cells or lysates may run through a third protein. For some of these results: Binding calls can cover weak binding; strength is not graded here. Tags and fused reporters may be left off the sequences shown.

How the values were obtained:
Experiment in all cases: pull-down; IMAC (affinity chromatography) using His-tagged Δ20, its halves Δ20 N and Δ20C or RFP-tagged Δ20 min, with EGFP-tagged SPARC or its deletion mutants (Fig. 2f, g; Suppl. Figure 3c-e, 4b)
[1] = target: RFP-tagged minimal deleted Nogo-A(Δ20)
His-tagged Nogo-A-Δ20 = target: His-tagged Nogo-A-Δ20
Nogo-A-Δ20 N = target: Nogo-A-Δ20 N
Nogo-A-Δ20C = target: Nogo-A-Δ20C

B1: EGFP-tagged SPARC (protein, UniProt P09486 18-303)
chain: APQQEALPDETEVVEETVAEVTEVSVGANPVQVEVGEFDDGAEETEEEVVAENPCQNHHCKHGKVCELDENNTPMCVCQDPTSCPAPIGEFEKVCSNDNKTFDSSCHFFATKCTLEGTKKGHKLHLDYIGPCKYIPPCLDSELTEFPLRMRDWLKNVLVTLYERDEDNNLLTEKQKLRVKKIHENEKRLEAGDHPVELLARDFEKNYNMYIFPVHWQFGQLDQHPIDGYLSHTELAPLRAPLIPMEHCTTRFFETCDLDNDKYIALDEWAGCFGIKQKDIDKDLVI
In the case of B1, the binding [1] is reported as “binds”, the binding (His-tagged Nogo-A-Δ20) is reported as “binds” and the binding (Nogo-A-Δ20 N) is reported as “no binding”. For the same binder, the binding (Nogo-A-Δ20C) was “binds”.
